Patent US6358921B1, “Antimicrobial peptide compositions and method” (priority 1996, dated 2002)

Experiments:
P. aeruginosa H187 = format: cell-based, Pseudomonas aeruginosa
Description: (§1) The following bacterial strains were utilized: Escherichia coli UB1005 (wt) and its antibiotic supersusceptible derivative DC2 (Clark, 1984); Excherichia coli SC9251 and its polymixin B rasistant mutant pmrA SC9252 (Peterson, et al., 1987) Pseudomonas aeruginosa H187 (wt) (Angus, et al., 1987) and its antibiotic-sensitive derivative H188 (Zimmerman, W, Antimicrob. Agents Chemother. 18: 94-100, 1980); methicillin sensitive Staphylococcus aureus K147 (Kreiswirth, et al., 1983); Staphylococcus aureus SAP0017, a methicillin resistant clinical isolate from Dr. A. Chow (University of British Columia); Bacillus subtilis, an environmental wt lab strain. Enterococcus faecalis are ATCC 29212 cells and Staphylococcus epidermidis was a clinical isolate from Dr. D. Speert (University of British Columbia). Antifungal activity was tested using a clinical lab isolate of Candida albicans. Salmonella typhinurium C57 and C610 (Fields, P.I., et al., Science 243: 1059-1062 (1989) Corynebacterium xerosis was an environmental isolate (University of British Columbia).
(§2) It is now apparent that agar-based assays severely underestimate antifungal activity as well as activity against gram negative microorganisms (Kondejewski, et al., 1996). Consequently, in the studies reported herein, a liquid-broth method was used to measure the antibiotic properties of the peptides. […] Briefly, cells were grown overnight at 37° C. in LB and diluted in the same medium. Serial dilutions of antibiotics were added to the microtitre plates in a volume of 100 μL followed by 10 μL of bacteria to give a final inoculum of 5×10^5 CFU/mL. Plates were incubated at 37° C. overnight and MICs determined as the lowest antibiotic concentration that inhibited growth.
(§3) The results from antimicrobial and hemolytic assays are combined to provide a “Therapeutic Index” (TI) for each peptide with respect to individual microorganisms. As reported herein, the TI is calculated as the hemolytic activity divided by the antimicrobial activity. The TI thus is a measure of specificity of the particular peptide for microbial membranes as opposed to human blood cell membranes. In the present studies, antimicrobial activities are reported as minimum inhibitory concentrations (MIC)—the lowest concentration of peptide (μg/ml) found to inhibit growth of the particular microbe. Hemolytic activity is reported as the concentration of peptide that effected complete lysis of blood cells after four hours. Thus, in the context of the present invention high TI values indicate microbial specificity and relative lack of toxicity.

P. aeruginosa H188 = format: cell-based, Pseudomonas aeruginosa
Description: as §1
as §2, with “growth. […]” for “growth.”

E. coli UB1005 = format: cell-based, Escherichia coli
Description: as §1
as §2, with “growth. […]” for “growth.”

E. coli DC2 = format: cell-based, Escherichia coli
Description: as §1, §2, §3

S. typhinurium C587 = format: cell-based, Salmonella typhinurium
Description: as §1
as §2, with “growth. […]” for “growth.”

S. typhinurium C610 = format: cell-based, Salmonella typhinurium
Description: as §1
as §2, with “growth. […]” for “growth.”

S. aureus K147 = format: cell-based, Staphylococcus aureus
Description: as §1, §2, §3

S. aureus SAP0017 = format: cell-based, Staphylococcus aureus
Description: as §1, §2, §3

S. epidermidis = format: cell-based, Staphylococcus epidermidis
Description: as §1
as §2, with “growth. […]” for “growth.”

B. subtilis = format: cell-based, Bacillus subtilis
Description: as §1
as §2, with “growth. […]” for “growth.”

E. faecalis = format: cell-based, Enterococcus faecalis
Description: as §1
as §2, with “growth. […]” for “growth.”

C. xeroses = format: cell-based, Corynebacterium xerosis
Description: as §1
as §2, with “growth. […]” for “growth.”

C. Albicans = format: cell-based, Candida albicans
Description: as §1
as §2, with “growth. […]” for “growth.”

| SMILES | Therapeutic Index = hemolytic activity/antibacterial activity (P. aeruginosa H187) | Therapeutic Index = hemolytic activity/antibacterial activity (P. aeruginosa H188) | Therapeutic Index = hemolytic activity/antibacterial activity (E. coli UB1005) | Therapeutic Index = hemolytic activity/antibacterial activity (E. coli DC2) | Therapeutic Index = hemolytic activity/antibacterial activity (S. typhinurium C587) | Therapeutic Index = hemolytic activity/antibacterial activity (S. typhinurium C610) | Therapeutic Index = hemolytic activity/antibacterial activity (S. aureus K147) | Therapeutic Index = hemolytic activity/antibacterial activity (S. aureus SAP0017) | Therapeutic Index = hemolytic activity/antibacterial activity (S. epidermidis) | Therapeutic Index = hemolytic activity/antibacterial activity (B. subtilis) | Therapeutic Index = hemolytic activity/antibacterial activity (E. faecalis) | Therapeutic Index = hemolytic activity/antibacterial activity (C. xeroses) | Increase in therapeutic index over GS14K4 (C. xeroses; C. xeroses) | Therapeutic Index = hemolytic activity/antibacterial activity (C. Albicans) |
| --- | --- | --- | --- | --- | --- | --- | --- | --- | --- | --- | --- | --- | --- | --- |
| CC(C)C[C@@H]1NC(=O)[C@H](CCCCN)NC(=O)[C@H](C)NC(=O)[C@@H]2CCCN2C(=O)[C@@H](Cc2ccc(O)cc2)NC(=O)[C@H](CC(C)C)NC(=O)[C@H](CCCCN)NC(=O)[C@H](C)NC(=O)[C@H](CCCCN)NC(=O)[C@H](CC(C)C)NC(=O)[C@@H]2CCCN2C(=O)[C@@H](Cc2ccc(O)cc2)NC(=O)[C@H](C)NC(=O)[C@@H](CCCCN)NC1=O [V3/A3] | 21 | 89 | 130 | 180 | 46 | 260 | 4 | 4 | 32 | 4 | 4 | 520 | approximately 4 fold | 32 |
| CC(C)C[C@@H]1NC(=O)[C@H](CCCCN)NC(=O)[C@H](CC(C)C)NC(=O)[C@@H]2CCCN2C(=O)[C@@H](Cc2ccc(O)cc2)NC(=O)[C@H](CC(C)C)NC(=O)[C@@H](CCCCN)NC(=O)[C@H](CC(C)C)NC(=O)[C@H](CCCCN)NC(=O)[C@H](CC(C)C)NC(=O)[C@@H]2CCCN2C(=O)[C@@H](Cc2ccc(O)cc2)NC(=O)[C@H](CC(C)C)NC(=O)[C@H](CCCCN)NC1=O [V3/L3] | 0.25 | 8 | 4 | 8 | 0.25 | 1.7 | 1 | 2 | 17 | 2.8 | 17 | 25 |  | 6.3 |
| C[C@@H]1NC(=O)[C@H](CCCCN)NC(=O)[C@H](C)NC(=O)[C@@H]2CCCN2C(=O)[C@@H](Cc2ccc(O)cc2)NC(=O)[C@H](C)NC(=O)[C@@H](CCCCN)NC(=O)[C@H](C)NC(=O)[C@H](CCCCN)NC(=O)[C@H](C)NC(=O)[C@@H]2CCCN2C(=O)[C@@H](Cc2ccc(O)cc2)NC(=O)[C@H](C)NC(=O)[C@H](CCCCN)NC1=O [V3L3/A6] | 4 | 21 | 4 | 4 | 4 | 4 | 4 | 4 | 4 | 4 | 4 | 8 |  | 4 |
